Measured values published in publication PMC8268055.
These are yes or no findings as the source states them, for the method shown. For part of these data: In cells and extracts the contact can be indirect. Some entries that bind do so weakly or less than the wild type.

Protein sequences, listed by entry. Tags and fused reporters are not part of them. Lines headed by an entry give the natural chain unless they say otherwise; changes in a name come on top. Chains listed by the source or under a name are the forms on record and can include a tag or linker. Residues count along the entry.
UniProt O75056: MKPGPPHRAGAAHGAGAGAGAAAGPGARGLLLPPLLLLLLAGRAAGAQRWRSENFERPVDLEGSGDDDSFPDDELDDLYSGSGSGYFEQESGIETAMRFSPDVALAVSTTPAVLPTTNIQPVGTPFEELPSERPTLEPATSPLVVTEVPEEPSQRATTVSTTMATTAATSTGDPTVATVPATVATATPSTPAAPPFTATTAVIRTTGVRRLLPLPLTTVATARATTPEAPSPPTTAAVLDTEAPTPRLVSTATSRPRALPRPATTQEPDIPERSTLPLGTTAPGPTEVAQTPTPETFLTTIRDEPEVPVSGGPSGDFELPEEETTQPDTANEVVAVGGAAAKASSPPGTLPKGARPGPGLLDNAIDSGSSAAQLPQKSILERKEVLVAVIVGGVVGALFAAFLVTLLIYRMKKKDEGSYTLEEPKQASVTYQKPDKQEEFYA
UniProt P34741, residues 19-201: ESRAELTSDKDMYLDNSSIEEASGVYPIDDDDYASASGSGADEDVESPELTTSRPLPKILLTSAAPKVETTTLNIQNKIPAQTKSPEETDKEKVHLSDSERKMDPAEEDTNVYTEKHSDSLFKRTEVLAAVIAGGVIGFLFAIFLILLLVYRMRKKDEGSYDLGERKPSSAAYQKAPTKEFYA
FITC-labeled apolipoprotein E3 (P02649, residues 19-317): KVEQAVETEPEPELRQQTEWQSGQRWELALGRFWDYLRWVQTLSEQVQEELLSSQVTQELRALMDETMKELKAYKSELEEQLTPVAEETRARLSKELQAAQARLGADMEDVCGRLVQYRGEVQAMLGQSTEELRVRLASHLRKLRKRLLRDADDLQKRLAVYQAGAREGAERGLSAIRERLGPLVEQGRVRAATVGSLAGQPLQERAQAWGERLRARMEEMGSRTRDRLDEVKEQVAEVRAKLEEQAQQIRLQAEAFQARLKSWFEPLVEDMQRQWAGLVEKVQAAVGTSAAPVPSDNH
FITC-labeled apolipoprotein E2 (P02649, form named): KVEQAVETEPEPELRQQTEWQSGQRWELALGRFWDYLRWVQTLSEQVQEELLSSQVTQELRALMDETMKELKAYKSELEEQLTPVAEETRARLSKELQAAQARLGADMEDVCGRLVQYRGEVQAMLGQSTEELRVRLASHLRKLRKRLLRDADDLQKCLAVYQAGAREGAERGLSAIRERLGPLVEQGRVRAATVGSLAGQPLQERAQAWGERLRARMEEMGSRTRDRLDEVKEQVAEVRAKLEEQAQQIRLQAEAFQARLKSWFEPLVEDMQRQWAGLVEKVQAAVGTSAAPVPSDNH
FITC-labeled apolipoprotein E4 (P02649, form named): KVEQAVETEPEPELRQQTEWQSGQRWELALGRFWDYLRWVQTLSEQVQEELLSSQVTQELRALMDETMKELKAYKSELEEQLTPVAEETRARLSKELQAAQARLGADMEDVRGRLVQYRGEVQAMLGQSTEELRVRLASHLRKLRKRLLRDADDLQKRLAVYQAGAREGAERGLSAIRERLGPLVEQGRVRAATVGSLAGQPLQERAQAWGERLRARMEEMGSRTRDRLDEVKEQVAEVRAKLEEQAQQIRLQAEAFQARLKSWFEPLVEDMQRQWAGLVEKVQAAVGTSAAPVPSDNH

What was measured:
[1] = biological target: Syndecan-3, endogenous in differentiated SH-SY5Y cells (human (endogenous in SH-SY5Y)) (UniProt O75056); test: co-IP; differentiated WT SH-SY5Y cells incubated with 500 nM FITC-ApoE for 18 h at 37 °C, lysed in Pierce IP lysis buffer; precipitated with human SDC3 antibody and Protein A/G magnetic beads; FITC-ApoE seen on SDS-PAGE by fluorescence imaging; only the binder purified
[2] = biological target: Syndecan-2, full length, stable transfectant in K562 cells (UniProt P34741); test: flow cytometry on cells; WT K562 cells and SDC1-4 transfectants (standardised for HS expression) incubated with 500 nM FITC-ApoE for 3 h at 37 °C in DMEM/F12 with 10% FCS; overall cellular fluorescence (not quenched with trypan blue) compared with WT K562 cells; only the binder purified
[3] = biological target: T1, Syndecan-4, full length, stable transfectant in K562 cells (UniProt P31431); test: as above
T1 sequence: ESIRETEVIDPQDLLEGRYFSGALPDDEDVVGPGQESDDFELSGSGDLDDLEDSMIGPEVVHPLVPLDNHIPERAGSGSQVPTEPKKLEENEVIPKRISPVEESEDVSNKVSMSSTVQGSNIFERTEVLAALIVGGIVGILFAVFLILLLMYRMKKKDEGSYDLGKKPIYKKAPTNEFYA

[4] = biological target: Syndecan-3, full length, stable transfectant in K562 cells (UniProt O75056); test: as above
[5] = biological target: T2, Syndecan-1, full length, stable transfectant in K562 cells (UniProt P18827); test: as above
T2 sequence: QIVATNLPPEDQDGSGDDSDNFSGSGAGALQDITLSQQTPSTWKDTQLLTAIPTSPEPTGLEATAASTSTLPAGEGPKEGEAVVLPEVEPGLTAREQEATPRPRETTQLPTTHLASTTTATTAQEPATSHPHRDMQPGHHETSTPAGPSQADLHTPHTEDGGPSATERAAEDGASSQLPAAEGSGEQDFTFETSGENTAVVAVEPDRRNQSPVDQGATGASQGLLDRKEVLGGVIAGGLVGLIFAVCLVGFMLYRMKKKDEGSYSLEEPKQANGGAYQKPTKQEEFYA

[6] = biological target: Syndecan-3, full length, stable transfectant in K562 cells (UniProt O75056); test: co-IP; SDC3 transfectants in K562 incubated with 500 nM FITC-ApoE for 18 h at 37 °C, lysed in Pierce IP lysis buffer; precipitated with human SDC3 antibody and Protein A/G magnetic beads; FITC-ApoE seen on SDS-PAGE by fluorescence imaging; only the binder purified

Row | binding [1] | binding [2] | binding [3] | binding [4] | binding [5] | binding [6] | Substance
1 | binds | binds | binds | binds | binds | binds | FITC-labeled apolipoprotein E2 (from UniProt P02649 19-317)
2 | binds | binds | binds | binds | binds | binds | FITC-labeled apolipoprotein E3 (from UniProt P02649 19-317)
3 | binds | binds | binds | binds | binds | binds | FITC-labeled apolipoprotein E4 (from UniProt P02649 19-317)
